Laboratory results published in patent US9549988B2, “Pharmaceutical compounds targeted by MIF affinity-tethered moieties” (RJS Biologics LLC, priority 2013, dated 2017).
Entries after “also recorded” stand apart in the source; their conditions may differ. At least one structure is not confirmed: it was looked up by name or label, or the drawing left a doubt.

How the values were obtained:
[1] = test system: THP-1 leukemia cells mixed with non-cancerous PBMC cells; test: Flow cytometry drug uptake in mixed THP-1 / PBMC population; assay type: cell-based, human; conditions: FIG. 21; THP-1 added to PBMC; 0.8 μM; 2-2.5 h; PE channel
Experimental: This example illustrates an in vitro experiment using predictive models of cancer to show the cellular specificity and potential therapeutic utility of the inventive compounds. The human leukemic cell line THP-1 was grown in RPMI 1640 medium with penicillin, streptomycin, and containing 25 mM Hepes, 0.05 mM 2-mercaptoethanol, 10% fetal bovine serum and 2 mM L-glutamine. Cells washed 2× with Gibco Life Sciences (Grand Island, N.Y.) AIM-V serum free medium and then were inoculated into 96 well microtiter plates in 100 μL at plating densities ranging from 25,000 to 100,000 cells/well. Five to ten million frozen peripheral blood mononuclear cells (PBMCs) (Astarte Biologics, LLC. (Redmond, Wash.)) in a solution of 10% DMSO, 2% human serum albumin in phosphate buffered saline were thawed and immediately washed in AIM-V media. An approximately equal number of these cells (25,000 to 100,000 cells/well) were added to the experimental plate. Doxorubicin was added to a final concentration of 0.8 μM. The microtiter plates were incubated at 37° C., 5% CO2, 95% air and 100% relative humidity for 2-2.5 h then drug uptake was quantified by flow cytometry for example using a BD FACSCanto II (San Jose, Calif.). Doxorubicin uptake was evaluated in the PE channel. Individual cell populations were identified by size, shape and through the use of dye labeled antibodies.

THP-1 leukemia cells = test: Flow cytometry uptake by THP-1 cells in presence of ISO-1; assay type: cell-based, human; conditions: FIG. 22, 2 hrs at 37° C.
Experimental: This example illustrates an in vitro experiment using predictive models of cancer to show the cellular specificity and potential therapeutic utility of the inventive compounds. The human leukemic cell line THP-1 was grown AIM-V serum free medium Gibco Life Sciences (Grand Island, N.Y.). […] Then the washed THP-1 cells were added to the drug dilutions to start the experiment ˜75,000 cells per well. Test compounds were incubated 2 hrs at 37° C., then the plate was read by flow cytometry BD Canto 2 (80 μl˜25,000 cells). A population of Single Round “average” cells was selected by FSC and SSC—constituting %70 of the total cell population examined. The amount of doxorubicin uptake was evaluated for this population in the PE channel.

A549 cells = test: Confocal microscopy of cellular localization, A549; assay type: cell-based; conditions: FIG. 24; A549 lung cancer cells; 0.8 μM, 2 hrs at 37° C.; compared to Doxorubicin
THP-1 cells = test: Confocal microscopy of cellular localization, THP-1; assay type: cell-based; conditions: FIG. 23, 0.8 μM, 2 hrs at 37° C., compared to Doxorubicin

## COc1cccc2c1C(=O)c1c(cc3c(c1O)[C@H](OC1CC(NC(=O)COc4ccc(Cn5c(=O)oc6ccc(C)cc65)cc4O)[C@@H](O)[C@@H](C)O1)C[C@@](O)(C(=O)CO)C3)C2=O (stereo in doubt) [compound 9, N-((2R,3R,4R,6R)-6-(((1R,3R)-3,12-dihydroxy-3-(2-hydroxyacetyl)-10-methoxy-6,11-dioxo-1,2,3,4,6,11-hexahydrotetracen-1-yl)oxy)-3-hydroxy-2-methyltetrahydro-2H-pyran-4-yl)-2-(2-hydroxy-4-((5-methyl-2-oxobenzo[D]oxazol-3(2H)-yl)methyl)phenoxy)acetamide]
[1]
  preferential cellular uptake by cancer cells over non-cancerous cells: selectively taken up by cancer cells
THP-1 leukemia cells
  inhibition of cellular uptake by ISO-1: inhibited
A549 cells
  intracellular localization / cellular import: efficient transport; also recorded: substantially altered intracellular localization
THP-1 cells
  intracellular localization / cellular import: efficient transport; also recorded: substantially altered intracellular localization
